Results as given in paper PMC10520683.
These are yes or no findings as the source states them, for the method shown. Binding seen in cells or lysates may run through a third protein. A yes stands for co-enrichment or nearness to the bait. Other partners may have been found.

Protein sequences, listed by entry. Tags and fused reporters are not part of them. Residues count along the entry.
UniProt P01575, residues 22-182: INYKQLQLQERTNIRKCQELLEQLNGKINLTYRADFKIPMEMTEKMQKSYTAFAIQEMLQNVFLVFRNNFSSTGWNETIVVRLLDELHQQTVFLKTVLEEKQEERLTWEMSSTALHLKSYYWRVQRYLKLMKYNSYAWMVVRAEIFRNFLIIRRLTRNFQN
UniProt P07355: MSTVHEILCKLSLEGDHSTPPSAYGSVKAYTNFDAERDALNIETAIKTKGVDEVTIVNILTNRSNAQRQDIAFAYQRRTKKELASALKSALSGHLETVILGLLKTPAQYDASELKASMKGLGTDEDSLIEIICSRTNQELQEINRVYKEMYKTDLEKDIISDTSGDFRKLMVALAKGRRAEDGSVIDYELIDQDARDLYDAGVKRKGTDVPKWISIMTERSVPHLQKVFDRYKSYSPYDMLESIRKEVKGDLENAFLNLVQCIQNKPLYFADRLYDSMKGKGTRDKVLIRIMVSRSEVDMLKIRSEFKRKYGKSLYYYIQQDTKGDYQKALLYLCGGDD
UniProt P02649, residues 19-317: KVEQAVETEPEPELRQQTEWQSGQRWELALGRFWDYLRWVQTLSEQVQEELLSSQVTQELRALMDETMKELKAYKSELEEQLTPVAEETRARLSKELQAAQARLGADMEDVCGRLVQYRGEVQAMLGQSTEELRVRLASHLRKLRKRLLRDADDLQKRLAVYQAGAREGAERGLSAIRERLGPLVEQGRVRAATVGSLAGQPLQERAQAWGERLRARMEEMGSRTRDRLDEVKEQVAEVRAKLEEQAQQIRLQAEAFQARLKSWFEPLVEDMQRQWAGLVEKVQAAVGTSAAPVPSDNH
UniProt P18065, residues 36-325: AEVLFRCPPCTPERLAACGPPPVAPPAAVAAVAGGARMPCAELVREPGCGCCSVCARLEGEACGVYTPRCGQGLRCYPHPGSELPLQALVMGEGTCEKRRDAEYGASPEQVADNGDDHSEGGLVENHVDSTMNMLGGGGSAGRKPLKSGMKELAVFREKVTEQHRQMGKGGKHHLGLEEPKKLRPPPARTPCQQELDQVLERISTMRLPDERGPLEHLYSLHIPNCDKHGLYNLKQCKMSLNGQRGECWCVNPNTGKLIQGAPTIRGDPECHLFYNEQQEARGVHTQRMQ

biological target: mouse hFc-tagged IFN-β (mouse) (UniProt P01575); experiment: affinity purification with mass spectrometry; about 500 µg of proteins of 30-fold concentrated hEP-CdM incubated with or without mouse hFc-tagged IFN-β (1:1000) at 4 °C overnight; protein G magnetic beads 4 h at 4 °C; five washes in IP buffer; SDS-PAGE, silver staining, MS (Q Exactive, MASCOT); candidates selected by molecular weight and abundance; only the target purified

Row | Substance | binding
1 | annexin A2 (ANXA2) (from UniProt P07355 1-339) | binds
2 | apolipoprotein E (APOE) (from UniProt P02649 19-317) | binds
3 | insulin-like growth factor binding protein 2 (IGFBP2) (from UniProt P18065 36-325) | binds
